Results published in patent US12618845B2, “Methods and compositions for protein sequencing” (Quantum-Si Incorporated, priority 2018, dated 2026).

B1: hTET: Pyrococcus horikoshii TET aminopeptidase, SEQ ID NO: 59 (protein, listed as Pyrococcus horikoshii)
chain: MEVRNMVDYELLKKVVEAPGVSGYEFLGIRDVVIEEIKDYVDEVKVDKLGNVIAHKKGEGPKVMIAAHMDQIGLMVTHIEKNGFLRVAPIGGVDPKTLIAQRFKVWIDKGKFIYGVGASVPPHIQKPEDRKKAPDWDQIFIDIGAESKEEAEDMGVKIGTVITWDGRLERLGKHRFVSIAFDDRIAVYTILEVAKQLKDAKADVYFVATVQEEVGLRGARTSAFGIEPDYGFAIDVTIAADIPGTPEHKQVTHLGKGTAIKIMDRSVICHPTIVRWLEELAKKHEIPYQLEILLGGGTDAGAIHLTKAGVPTGALSVPARYIHSNTEVVDERDVDATVELMTKALENIHELKI
B2: VPr: Vibrio proteolyticus aminopeptidase (protein)
chain: MPPITQQATVTAWLPQVDASQITGTISSLESFTNRFYTTTSGAQASDWIASEWQALSASLPNASVKQVSHSGYNQKSVVMTITGSEAPDEWIVIGGHLDSTIGSHTNEQSVAPGADDDASGIAAVTEVIRVLSENNFQPKRSIAFMAYAAEEVGLRGSQDLANQYKSEGKNVVSALQLDMTNYKGSAQDVVFITDYTDSNFTQYLTQLMDEYLPSLTYGFDTCGYACSDHASWHNAGYPAAMPFESKFNDYNPRIHTTQDTLANSDPTGSHAKKFTQLGLAYAIEMGSATGDTPTPGNQ

Test system: peptide substrates
Type: biochemical
Details: RT/0.5 hr; for Pdt, share of −3 product / Pdt, share of −4 product: substrate […]1 (SEQ ID NO: 13), 300 μM Peptide, 8 μM enzyme
[1] = 10 mM Mg(OAc)2, 50 mM MOPS pH 8, 60 mM KOAc

Molecule | Pdt (cleavage product, substrate […]1 (SEQ ID NO: 156), 1 mM Peptide, 1.0 μM enzyme, 10 mM Mg(OAc)2, 50 mM MOPS pH 8, 60 mM KOAc) | Pdt, share of −3 product [1] | Pdt, share of −4 product [1] | Pdt, share of −3 product (50/50 MOPS Mg buffer/RB1) | Pdt, share of −4 product (50/50 MOPS Mg buffer/RB1)
B1 | WADDDWK |  |  |  | 
B2 |  | 30% −3, | 70% −4 | 70% −3, | 30% −4

Where two headings read alike, the source gives them in different places.
